These are yes or no findings as the source states them, for the method shown. Some results given as binding are weak or reduced against the parent protein; the word gives no strength.
Molecular target: PD-1 expressed on cells (human) (UniProt Q15116)
Assay: flow cytometry on PD-1 expressing Flp-In CHO cells

Sequences of proteins named here, by UniProt entry; tags and fusion partners are left off. A change or cut given only in a name is not applied to a line headed by its entry.
UniProt Q15116: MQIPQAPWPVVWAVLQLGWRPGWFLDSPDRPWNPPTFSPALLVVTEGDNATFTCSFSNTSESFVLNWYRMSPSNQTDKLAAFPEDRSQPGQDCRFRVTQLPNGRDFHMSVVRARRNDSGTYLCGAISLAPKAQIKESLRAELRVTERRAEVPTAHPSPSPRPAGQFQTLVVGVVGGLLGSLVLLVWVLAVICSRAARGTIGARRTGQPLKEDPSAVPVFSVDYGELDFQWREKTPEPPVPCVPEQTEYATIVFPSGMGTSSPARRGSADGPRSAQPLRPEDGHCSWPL

Binder	binding
A19 (antibody, V domains shown) VH: QVQLVESGGGVVQPGRSLRLSCAASGFTFSNYGMYWVRQAPGKGLEWVAVIWYDGSNKYYADSVKGRFTISRDNSKNTLYLQMNSLRAEDTAVYYCAGGGDILTGDYWGQGTLVTVSS VL: DIQMTQSPSSLSASVGDRVTITCRASQGIRNDLGWYQQKPGKAPKRLIYAASSLQSGVPSRFSGSGSGTEFTLTISSLQPEDFATYYCLQYKSYLYTFGQGTKLEIK	binds
A20 (antibody, V domains shown) VH: EVQLVESGGGLVQPGGSLRLSCAASGFTFSFYDMHWVRQAKGKGLEWVSAIGTAGDTYYPGSVKGRFTISRENAKNSLYLQMNSLRAGDTAVYYCARGYCSTTNCFADYFDYWGQGTLVTVSS VL: DIQLTQSPSFLSASVGDRVTITCRASQGISNYLAWYQQKPGKAPKLLIYAASTLQSGVPSRFSGSGSGTEFTLTISSLQPEDFATYYCHQLNSFPLTFGGGTKVEIK	binds
A3 (antibody, V domains shown) VH: QVQLVESGGGEVQPGRSLRLSCAASGFTFSDYGMHWVRQAPGKGLEWVAVIWYDGSNKYYADSVKGRFTISRDNSKNTLYLQMNSLRAEDTAVYYCAGGGSYWGDYWGQGTLVTVSS VL: DIQMTQSPSSLSASVGDRVTITCRASQGIRNELGWYQQKPGKAPKRLIYAASSLQSGVPSRFSGSGSGTEFTLTISSLQPEDFATYYCLQHYIYPWTFGQGTKVEIKR	binds
